Data as given in paper PMC4373776.

By UniProt entry, the sequences of proteins in these tests, tags left out. Where a name states a change or a piece, a line headed by the entry shows the natural chain unless it says otherwise.
UniProt Q8BVN9: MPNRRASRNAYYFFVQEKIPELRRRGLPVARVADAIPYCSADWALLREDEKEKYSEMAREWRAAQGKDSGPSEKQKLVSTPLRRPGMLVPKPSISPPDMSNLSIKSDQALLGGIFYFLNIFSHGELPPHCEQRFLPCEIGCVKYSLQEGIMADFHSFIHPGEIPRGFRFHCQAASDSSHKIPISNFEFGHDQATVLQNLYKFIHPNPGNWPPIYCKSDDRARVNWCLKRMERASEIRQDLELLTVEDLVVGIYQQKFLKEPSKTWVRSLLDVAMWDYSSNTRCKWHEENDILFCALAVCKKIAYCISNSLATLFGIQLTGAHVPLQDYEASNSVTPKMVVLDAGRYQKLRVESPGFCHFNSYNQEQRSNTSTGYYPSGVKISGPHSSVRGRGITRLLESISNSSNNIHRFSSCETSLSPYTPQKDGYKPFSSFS

How the values were obtained:
Assay in all cases: EMSA
[1] = biological target: MAEL HMG-box (Mus musculus) (UniProt Q8BVN9); settings: 10 mM potassium phosphate pH 7.5, 50 mM KCl, 5% glycerol, 1 mM TCEP, 0.1 mg/ml BSA, 2.5 mM MgCl2, ~1 nM substrate, room temperature 30-60 min, native PAGE in ice bath, recombinant protein, residues 2-86, protein details: GST removed by PreScission (pGex6P2), label: 5' 32P
[2] = biological target: T1, MAEL HMG-box Q16A (Mus musculus) (UniProt Q8BVN9); settings: changed complexes; 5'-terminal dC and 3'-terminal dG on each strand; 10 mM potassium phosphate pH 7.5, 50 mM KCl, 5% glycerol, 1 mM TCEP, 0.1 mg/ml BSA, 2.5 mM MgCl2, ~1 nM substrate, room temperature 30-60 min; native PAGE in ice bath; recombinant protein; residues 2-86; protein details: GST removed by PreScission (pGex6P2); label: 5' 32P
T1 sequence (looked up): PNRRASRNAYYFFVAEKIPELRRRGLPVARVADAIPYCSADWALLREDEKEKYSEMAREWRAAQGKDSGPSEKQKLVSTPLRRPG

[3] = biological target: T2, MAEL HMG-box R31A (Mus musculus) (UniProt Q8BVN9); settings: small amount of intermediate complex; 5'-terminal dC and 3'-terminal dG on each strand; 10 mM potassium phosphate pH 7.5, 50 mM KCl, 5% glycerol, 1 mM TCEP, 0.1 mg/ml BSA, 2.5 mM MgCl2, ~1 nM substrate, room temperature 30-60 min; native PAGE in ice bath; recombinant protein; residues 2-86; protein details: GST removed by PreScission (pGex6P2); label: 5' 32P
T2 sequence (looked up): T1 sequence (looked up) with A15Q, R30A

[4] = biological target: T3, MAEL HMG-box R25A (Mus musculus) (UniProt Q8BVN9); settings: large complex formed; 5'-terminal dC and 3'-terminal dG on each strand; 10 mM potassium phosphate pH 7.5, 50 mM KCl, 5% glycerol, 1 mM TCEP, 0.1 mg/ml BSA, 2.5 mM MgCl2, ~1 nM substrate, room temperature 30-60 min; native PAGE in ice bath; recombinant protein; residues 2-86; protein details: GST removed by PreScission (pGex6P2); label: 5' 32P
T3 sequence (looked up): T1 sequence (looked up) with A15Q, R24A

[5] = biological target: MAEL HMG-box R23A (Mus musculus) (UniProt Q8BVN9); settings: large complex formed; 5'-terminal dC and 3'-terminal dG on each strand; 10 mM potassium phosphate pH 7.5, 50 mM KCl, 5% glycerol, 1 mM TCEP, 0.1 mg/ml BSA, 2.5 mM MgCl2, ~1 nM substrate, room temperature 30-60 min; native PAGE in ice bath; recombinant protein; residues 2-86; protein details: GST removed by PreScission (pGex6P2); label: 5' 32P

Sequence	binding result [1]	also measured
GGGCCUUCUUACCGGUUGGGGCAUCUUCUGGAUAUAUGCCCAGGAGAGGUAUUGCUGGAUCCUCCGGUAGUACUAUGUCCAAUUUUCUGAGGAACCACCAGACUGAUUUCCAGAGUGGUUGUACAGCUUGCAAUCCCACCAGCAAUGAA [L1_Md_F2 149-nt RNA]		binding result ([1]; only partly shifted): binds more weakly
GTGTAGTCGTGATAGGAAAAAAATGCAGGGGGTTATAGGG (double strand) [dsDNA 40 bp]	no binding	
GGGUGAACAUAGUGGAGCAUGUGUCCUUCUUACCGGUUGGGGCAUCUUCUGGAUAUAUGCCCAGGAGAGGUAUUGCUGGAUCCUCCGGUAGUACUAUGUCCAAUUUUCUGAGGAACCACCAGACUGAUUUCCAGAGUGGUUGUACAGCUUGCAAUCCCACCAGCAAUGAAGGCGUGUUCCUCUUUCUCCACAUCCACGCC [L1_Md_F2 200-nt RNA]		binding result ([1]; only partly shifted): binds more weakly
AAATATAATACGACTCACTATAGGGCTACCTACTGCAGCCGGTTACCTTTTATATAAGACAGTCGTAAACAAAGTAGGGGTGATTGTTCAGCCCTATATGTGAGTCGTATTATATTT (double strand) [dsDNA 117 bp]	no binding	
AACAAAGTAGGGGTGATTGTTCAG (double strand) [dsDNA 24 bp]	no binding	
CCGACAGGACUGUCAACCAGGUAAUAUACCACUUGCGG / CCGCAAGUGGUAUAUUACCUGGUACGCGUUCACGG / CCGUGAACGCGUGGUGCGAAUCGG / CCGAUUCGCACCUGACAGUCCUGUCGG [RNA 4WJ]		binding result [2]: binds more weakly; binding result [3]: binds more weakly; binding result [4]: binds more weakly; binding result [5]: binds more weakly
GGAUCUCUGCACACAACAGAGGUCC [RNA hairpin 4]		binding result ([1]; about 40% bound at high protein, strongest of the hairpins): binds more weakly
CCCAACACCCGCAAGGGUCCACACGGGACUCCCCACGGG [RNA hairpin 5]	binds more weakly	
GCGCAACAAUGCCGG / CCGGCAUUGUUGCGC [dsRNA 15 bp]	binds more weakly	
CAGTCGACGTCGTGAC (double strand) [dsDNA 16 bp]	no binding	
AACAAAGTAGGGGTGATTGTTCAGAACAAAGTAGGGGTGATTGTTCAG (double strand) [dsDNA 48 bp (24-mer repeat)]	no binding	
ATGAGGAACTTACCAGTTTTTCTTATCAATGAAACAATAACAAAGCGC (double strand) [dsDNA 48 bp second]	no binding	
GGAUCUCUGCACACAACAGUUGUCC [RNA hairpin 3]	binds more weakly	

Residue numbers refer to the chain shown, from its start. For some of these results: No signal at the amounts used counts as a negative. For some of these results: At least one verdict was read from the data and is not stated in words by the source. A weaker result is weaker than the reference pair of the same experiment. For some of these results: Protein sequences can lack the tags named with them.
